The target of this assay is T1, NA14 (nuclear autoantigen 1; SSNA1) (human (endogenous in HeLa)) (UniProt O43805).
T1 sequence: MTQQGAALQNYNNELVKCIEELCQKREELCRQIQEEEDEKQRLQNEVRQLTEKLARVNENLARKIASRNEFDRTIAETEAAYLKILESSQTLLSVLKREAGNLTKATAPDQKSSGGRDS
As to the kind of experiment: co-IP; HeLa cells transfected with Myc-spastin M1 or M87; extracts in 0.5% Triton X-100/PBS, immunoprecipitated with rabbit polyclonal anti-SSNA1 (NA14) antibodies or non-immune IgG at 4°C, Protein A/G PLUS-agarose beads, immunoblotted with Myc-epitope antibodies. In general terms: In western blotting, separated proteins are transferred to a membrane and probed.

No constants are given. Whether binding was seen depends on the method and setting. Binding seen in cells or lysates may run through a third protein. Some results given as binding are weak or reduced against the parent protein; the word gives no strength. Tags and fused reporters may be left off the sequences shown.

B1: Myc-spastin M1 (protein, UniProt Q9UBP0-1 1-616)
chain: MNSPGGRGKKKGSGGASNPVPPRPPPPCLAPAPPAAGPAPPPESPHKRNLYYFSYPLFVGFALLRLVAFHLGLLFVWLCQRFSRALMAAKRSSGAAPAPASASAPAPVPGGEAERVRVFHKQAFEYISIALRIDEDEKAGQKEQAVEWYKKGIEELEKGIAVIVTGQGEQCERARRLQAKMMTNLVMAKDRLQLLEKMQPVLPFSKSQTDVYNDSTNLACRNGHLQSESGAVPKRKDPLTHTSNSLPRSKTVMKTGSAGLSGHHRAPSYSGLSMVSGVKQGSGPAPTTHKGTPKTNRTNKPSTPTTATRKKKDLKNFRNVDSNLANLIMNEIVDNGTAVKFDDIAGQDLAKQALQEIVILPSLRPELFTGLRAPARGLLLFGPPGNGKTMLAKAVAAESNATFFNISAASLTSKYVGEGEKLVRALFAVARELQPSIIFIDEVDSLLCERREGEHDASRRLKTEFLIEFDGVQSAGDDRVLVMGATNRPQELDEAVLRRFIKRVYVSLPNEETRLLLLKNLLCKQGSPLTQKELAQLARMTDGYSGSDLTALAKDAALGPIRELKPEQVKNMSASEMRNIRLSDFTESLKKIKRSVSPQTLEAYIRWNKDFGDTTV
As for B1, the binding result was “no binding”.

B2: Myc-spastin M87 (protein, UniProt Q9UBP0-1 87-616)
chain: MAAKRSSGAAPAPASASAPAPVPGGEAERVRVFHKQAFEYISIALRIDEDEKAGQKEQAVEWYKKGIEELEKGIAVIVTGQGEQCERARRLQAKMMTNLVMAKDRLQLLEKMQPVLPFSKSQTDVYNDSTNLACRNGHLQSESGAVPKRKDPLTHTSNSLPRSKTVMKTGSAGLSGHHRAPSYSGLSMVSGVKQGSGPAPTTHKGTPKTNRTNKPSTPTTATRKKKDLKNFRNVDSNLANLIMNEIVDNGTAVKFDDIAGQDLAKQALQEIVILPSLRPELFTGLRAPARGLLLFGPPGNGKTMLAKAVAAESNATFFNISAASLTSKYVGEGEKLVRALFAVARELQPSIIFIDEVDSLLCERREGEHDASRRLKTEFLIEFDGVQSAGDDRVLVMGATNRPQELDEAVLRRFIKRVYVSLPNEETRLLLLKNLLCKQGSPLTQKELAQLARMTDGYSGSDLTALAKDAALGPIRELKPEQVKNMSASEMRNIRLSDFTESLKKIKRSVSPQTLEAYIRWNKDFGDTTV
On to B2, for which the binding entry is on record as “binds”.
